The experiment has as its target hMRP5-Δ1-94-8xHis (human) (UniProt O15440). Put plainly: MST; digitonin-purified hMRP5-Δ1-94-8xHis labelled with RED-tris-NTA 2nd Generation dye; serially diluted peptides; 15 min at room temperature; HEPES buffer; 3% LED/excitation power, medium MST power (Monolith NT); both purified.

Binding data for 1 molecule are collected here from publication PMC11156954, “Inhibition and transport mechanisms of the ABC transporter hMRP5” (Nature Communications, 2024).

Results are given in words; binding and its absence hold for the method and conditions named. Some entries that bind do so weakly or less than the wild type.

DIGKEYIIPSPGYRSVRERTS (peptide, UniProt O15440 5-25) [Asp5-Ser25 peptide of hMRP5]: the binding result is reported as “binds weakly”.
